According to publication PMC2650799:
Results are given in words; binding and its absence hold for the method and conditions named. Binding seen in cells or lysates may run through a third protein. Some entries that bind do so weakly or less than the wild type.

Amino acid sequences for entries named in this document (tags omitted).
UniProt P11103: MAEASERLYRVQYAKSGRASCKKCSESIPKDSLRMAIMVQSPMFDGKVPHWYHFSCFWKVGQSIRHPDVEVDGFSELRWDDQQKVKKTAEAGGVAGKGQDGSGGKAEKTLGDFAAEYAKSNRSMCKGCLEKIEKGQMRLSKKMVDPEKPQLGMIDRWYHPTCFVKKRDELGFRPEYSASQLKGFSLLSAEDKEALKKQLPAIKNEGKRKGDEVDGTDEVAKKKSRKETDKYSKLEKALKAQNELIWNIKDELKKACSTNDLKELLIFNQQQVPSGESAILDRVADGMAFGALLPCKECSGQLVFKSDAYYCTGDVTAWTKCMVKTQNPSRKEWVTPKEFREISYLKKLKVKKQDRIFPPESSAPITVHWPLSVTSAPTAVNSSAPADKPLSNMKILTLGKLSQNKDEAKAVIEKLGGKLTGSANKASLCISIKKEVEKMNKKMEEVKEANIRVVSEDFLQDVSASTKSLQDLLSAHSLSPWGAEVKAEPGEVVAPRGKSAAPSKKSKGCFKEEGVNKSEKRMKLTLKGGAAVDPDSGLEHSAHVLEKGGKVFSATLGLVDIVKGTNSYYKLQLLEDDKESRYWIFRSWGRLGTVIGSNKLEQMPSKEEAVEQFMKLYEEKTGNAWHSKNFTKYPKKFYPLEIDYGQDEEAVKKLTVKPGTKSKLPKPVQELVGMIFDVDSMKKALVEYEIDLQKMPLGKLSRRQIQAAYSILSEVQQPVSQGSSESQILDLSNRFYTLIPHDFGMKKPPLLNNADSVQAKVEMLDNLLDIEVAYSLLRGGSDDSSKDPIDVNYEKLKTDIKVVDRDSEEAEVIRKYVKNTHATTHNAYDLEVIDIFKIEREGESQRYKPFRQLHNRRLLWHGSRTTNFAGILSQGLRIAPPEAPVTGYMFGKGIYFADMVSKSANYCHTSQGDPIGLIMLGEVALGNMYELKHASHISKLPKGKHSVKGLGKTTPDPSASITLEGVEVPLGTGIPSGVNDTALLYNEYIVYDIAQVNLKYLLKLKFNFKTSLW
UniProt P13864: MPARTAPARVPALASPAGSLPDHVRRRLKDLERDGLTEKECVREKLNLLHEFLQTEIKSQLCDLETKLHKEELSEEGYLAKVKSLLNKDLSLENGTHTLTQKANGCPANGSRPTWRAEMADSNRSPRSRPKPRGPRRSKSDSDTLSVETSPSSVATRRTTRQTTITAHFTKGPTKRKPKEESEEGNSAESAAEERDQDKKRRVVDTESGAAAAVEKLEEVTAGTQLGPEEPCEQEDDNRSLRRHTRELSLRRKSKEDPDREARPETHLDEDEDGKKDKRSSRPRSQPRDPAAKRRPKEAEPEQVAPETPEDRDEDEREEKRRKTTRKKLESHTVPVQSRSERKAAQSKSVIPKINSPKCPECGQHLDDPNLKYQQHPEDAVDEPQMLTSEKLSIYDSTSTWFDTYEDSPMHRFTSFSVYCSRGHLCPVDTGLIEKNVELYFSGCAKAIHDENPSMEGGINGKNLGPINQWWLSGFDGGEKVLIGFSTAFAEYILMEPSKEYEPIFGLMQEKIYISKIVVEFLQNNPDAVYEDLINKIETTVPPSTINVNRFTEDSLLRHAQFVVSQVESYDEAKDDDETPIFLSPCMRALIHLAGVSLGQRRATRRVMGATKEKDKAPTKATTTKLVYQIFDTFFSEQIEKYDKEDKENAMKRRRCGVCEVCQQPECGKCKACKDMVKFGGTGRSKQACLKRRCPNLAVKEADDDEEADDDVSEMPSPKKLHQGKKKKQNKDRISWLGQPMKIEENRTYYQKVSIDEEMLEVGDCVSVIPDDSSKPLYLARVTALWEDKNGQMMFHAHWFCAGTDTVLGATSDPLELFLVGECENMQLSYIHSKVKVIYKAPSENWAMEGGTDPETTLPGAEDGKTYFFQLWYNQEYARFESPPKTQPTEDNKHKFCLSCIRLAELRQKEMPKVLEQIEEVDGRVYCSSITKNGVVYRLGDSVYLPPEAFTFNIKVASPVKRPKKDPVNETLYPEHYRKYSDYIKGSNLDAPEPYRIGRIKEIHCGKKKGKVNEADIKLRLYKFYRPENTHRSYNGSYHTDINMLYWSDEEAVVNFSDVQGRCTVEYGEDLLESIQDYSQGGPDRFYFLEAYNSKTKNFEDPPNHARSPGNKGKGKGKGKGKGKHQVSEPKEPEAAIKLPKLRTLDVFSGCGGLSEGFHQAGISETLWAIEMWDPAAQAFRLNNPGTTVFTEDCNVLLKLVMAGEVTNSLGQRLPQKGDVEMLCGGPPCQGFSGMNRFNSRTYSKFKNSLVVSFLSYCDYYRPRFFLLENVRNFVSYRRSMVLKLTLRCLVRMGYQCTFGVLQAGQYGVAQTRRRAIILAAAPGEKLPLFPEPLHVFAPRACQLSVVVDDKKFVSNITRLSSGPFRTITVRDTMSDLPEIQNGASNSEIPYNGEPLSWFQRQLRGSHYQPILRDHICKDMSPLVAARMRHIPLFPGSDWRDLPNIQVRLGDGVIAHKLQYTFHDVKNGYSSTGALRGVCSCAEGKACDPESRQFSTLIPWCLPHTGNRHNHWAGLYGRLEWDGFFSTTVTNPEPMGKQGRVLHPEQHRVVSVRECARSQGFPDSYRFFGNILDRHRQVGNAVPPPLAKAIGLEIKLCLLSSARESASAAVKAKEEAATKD

Target: poly(ADP-ribose) polymerase 1 (Parp1) (mouse (endogenous in L929)) (UniProt P11103)
Assay: co-IP; nuclear lysates of L929 cells (1.5 mg) in IP buffer (50 mM Tris-HCl pH 7.5, 5 mM EDTA, 300 mM NaCl, 1% Nonidet P-40, 1% Triton X-100); immunoprecipitated with anti-PARP-1 (rabbit polyclonal) or anti-Dnmt1 (mouse monoclonal) at 4°C, protein A- or G-agarose; western blot, anti-PAR used to detect polymers

Substance: DNA methyltransferase 1 (Dnmt1) (from UniProt P13864 1-1620) (enzyme)
- binding: binds
